One molecule from publication PMC6895207 can be followed below.

The target in this assay is SPOR domain of rare lipoprotein A (RlpA) from P. aeruginosa, wild type (Pseudomonas aeruginosa PAO1) (UniProt Q9X6V6). Description: native MS; non-denaturing electrospray MS (MicrOTOF-QII) of the domain alone, 20 μM, in 1 M ammonium acetate, pH 6.6; both purified.

No constants are given. Whether binding was seen depends on the method and setting.

B1: SPOR domain of rare lipoprotein A (RlpA) from P. aeruginosa, wild type (domain or fragment, UniProt Q9X6V6 264-342)
chain: ADGLYLQVGAFANPDAAELLKAKLSGVTAAPVFISSVVRNQQILHRVRLGPIGSADEVSRTQDSIRVANLGQPTLVRPD
As to B1, the binding entry was “no binding (tested: 20 μM)”.
